# PubChem BioAssay AID1259308 | NCATS, 2017
# Assay: 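Candidate targets for better recombinant protein yield in mammalian cells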 (primary screen)
# Cells: human HEK293 embryonic kidney cells stably expressing firefly luciferase (HEK-CMV-Luc2-Hygro)
# Reagent: single siRNA against human genes, 0.8 pmol siRNA per well
# Duration: 72 h
# Measurement: 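Reporter luminescence and viable-cell signal on separate replicate plates, given as percent of non-targeting control and median/MAD z-scores, plus per-cell luciferase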
# Scale: total luciferase, z-score: higher = more reporter protein produced
# Rule for the call: 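An siRNA counts as active if its total luciferase robust z-score exceeds 3; genes with two or more such siRNAs out of three were retested with fresh siRNAs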
# Calls: active = raised luciferase; inactive = no rise
# The deposit covers about 59,000 reagents; shown is an unselected part. Of all reagents, about 1,510 (2.6%) got an active call. 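Calls use total luciferase alone and ignore viability, so some active siRNAs may act by altering cell number.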 Unmarked entries are inactive. The numbers tell different reagents against one gene apart. Not all columns of the deposit are shown. No sequences are given here.
Target gene,siRNA no.,"total luciferase, z-score"
TMCO5B (transmembrane and coiled-coil domains 5B (pseudogene)),1,-0.472
TMCO5B (transmembrane and coiled-coil domains 5B (pseudogene)),2,-0.487
TMCO5B (transmembrane and coiled-coil domains 5B (pseudogene)),3,-0.698
SNX6 (sorting nexin 6),1,-0.672
SNX6 (sorting nexin 6),2,-0.463
SNX6 (sorting nexin 6),3,-0.356
CDK10 (cyclin dependent kinase 10),1,-0.298
CDK10 (cyclin dependent kinase 10),2,0.695
CDK10 (cyclin dependent kinase 10),3,0.0219
MTCH2,1,-0.759
MTCH2,2,-1.5
MTCH2,3,-0.447
DOCK2 (dedicator of cytokinesis 2),1,0.089
DOCK2 (dedicator of cytokinesis 2),2,-0.554
DOCK2 (dedicator of cytokinesis 2),3,0.262

Already shown: 3 of the entries above.
Target gene,siRNA no.,"total luciferase, z-score"
SNX6 (sorting nexin 6),2,-0.463
SNX6 (sorting nexin 6),3,-0.356
CDK10 (cyclin dependent kinase 10),1,-0.298

The list goes on.
Target gene,siRNA no.,"total luciferase, z-score"
ZNF683 (zinc finger protein 683),1,1.69
ZNF683 (zinc finger protein 683),2,-0.474
ZNF683 (zinc finger protein 683),3,0.857
DLX5 (distal-less homeobox 5),1,0.907
DLX5 (distal-less homeobox 5),2,0.648
DLX5 (distal-less homeobox 5),3,-0.262
VN1R1 (vomeronasal 1 receptor 1),1,0.248
VN1R1 (vomeronasal 1 receptor 1),2,-1.04
VN1R1 (vomeronasal 1 receptor 1),3,0.477
SPRING1 (SREBF pathway regulator in golgi 1),1,-0.546
SPRING1 (SREBF pathway regulator in golgi 1),2,-0.0581
SPRING1 (SREBF pathway regulator in golgi 1),3,1.69
NPEPL1 (aminopeptidase like 1),1,0.452
NPEPL1 (aminopeptidase like 1),2,2.83
NPEPL1 (aminopeptidase like 1),3,-0.536
ATP5PD (ATP synthase peripheral stalk subunit d),1,1.18
ATP5PD (ATP synthase peripheral stalk subunit d),2,-1.48
ATP5PD (ATP synthase peripheral stalk subunit d),3,2.42
RPS17P16 (ribosomal protein S17 pseudogene 16),1,-2.78
RPS17P16 (ribosomal protein S17 pseudogene 16),2,0.0615
RPS17P16 (ribosomal protein S17 pseudogene 16),3,-2.71
PLD4 (phospholipase D family member 4),1,0.979
PLD4 (phospholipase D family member 4),2,-0.302
PLD4 (phospholipase D family member 4),3,1.25
